Experimental findings from the supplement of paper PMC10849652 are described below.

Amino acid sequences for entries named in this document (tags omitted). A change or cut given only in a name is not applied to a line headed by its entry.
UniProt P00966: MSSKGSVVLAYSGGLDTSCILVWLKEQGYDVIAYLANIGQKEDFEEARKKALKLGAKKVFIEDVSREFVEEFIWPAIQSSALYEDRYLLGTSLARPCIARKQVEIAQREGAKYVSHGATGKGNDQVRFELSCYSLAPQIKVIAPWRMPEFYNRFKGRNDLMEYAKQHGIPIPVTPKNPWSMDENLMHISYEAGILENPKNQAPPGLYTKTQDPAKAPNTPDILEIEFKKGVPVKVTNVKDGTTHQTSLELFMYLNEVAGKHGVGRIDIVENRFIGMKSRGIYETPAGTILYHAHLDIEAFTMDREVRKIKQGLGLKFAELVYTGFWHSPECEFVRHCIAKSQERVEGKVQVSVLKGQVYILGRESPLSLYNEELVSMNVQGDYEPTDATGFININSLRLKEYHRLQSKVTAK
UniProt Q9NWL6: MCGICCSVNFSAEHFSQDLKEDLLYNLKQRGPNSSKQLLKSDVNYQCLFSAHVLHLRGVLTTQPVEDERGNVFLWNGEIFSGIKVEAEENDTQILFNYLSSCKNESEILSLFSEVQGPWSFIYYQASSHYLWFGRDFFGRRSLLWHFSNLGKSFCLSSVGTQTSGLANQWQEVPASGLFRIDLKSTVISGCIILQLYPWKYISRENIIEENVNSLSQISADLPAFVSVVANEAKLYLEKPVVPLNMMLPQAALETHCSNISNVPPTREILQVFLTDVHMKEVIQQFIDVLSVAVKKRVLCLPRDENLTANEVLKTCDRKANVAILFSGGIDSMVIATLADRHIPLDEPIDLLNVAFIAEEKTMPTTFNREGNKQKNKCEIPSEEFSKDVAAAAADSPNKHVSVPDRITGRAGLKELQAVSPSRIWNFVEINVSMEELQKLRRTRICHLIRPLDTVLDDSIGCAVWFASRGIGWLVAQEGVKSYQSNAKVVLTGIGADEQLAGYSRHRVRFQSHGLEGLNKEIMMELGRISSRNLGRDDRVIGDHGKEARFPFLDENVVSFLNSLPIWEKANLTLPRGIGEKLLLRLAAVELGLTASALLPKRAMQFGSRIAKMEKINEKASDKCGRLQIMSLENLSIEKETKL
UniProt B2RBV5: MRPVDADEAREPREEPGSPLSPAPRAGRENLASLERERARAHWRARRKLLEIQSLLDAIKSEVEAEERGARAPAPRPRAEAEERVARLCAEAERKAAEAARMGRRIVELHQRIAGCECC
UniProt P18846: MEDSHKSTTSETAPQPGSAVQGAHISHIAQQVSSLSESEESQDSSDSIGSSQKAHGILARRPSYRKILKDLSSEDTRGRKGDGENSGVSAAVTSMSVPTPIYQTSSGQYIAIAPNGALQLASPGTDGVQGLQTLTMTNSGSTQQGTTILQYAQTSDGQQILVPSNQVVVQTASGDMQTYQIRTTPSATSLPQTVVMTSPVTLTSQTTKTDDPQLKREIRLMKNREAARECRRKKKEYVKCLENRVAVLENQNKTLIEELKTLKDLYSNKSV
UniProt Q8IXJ9: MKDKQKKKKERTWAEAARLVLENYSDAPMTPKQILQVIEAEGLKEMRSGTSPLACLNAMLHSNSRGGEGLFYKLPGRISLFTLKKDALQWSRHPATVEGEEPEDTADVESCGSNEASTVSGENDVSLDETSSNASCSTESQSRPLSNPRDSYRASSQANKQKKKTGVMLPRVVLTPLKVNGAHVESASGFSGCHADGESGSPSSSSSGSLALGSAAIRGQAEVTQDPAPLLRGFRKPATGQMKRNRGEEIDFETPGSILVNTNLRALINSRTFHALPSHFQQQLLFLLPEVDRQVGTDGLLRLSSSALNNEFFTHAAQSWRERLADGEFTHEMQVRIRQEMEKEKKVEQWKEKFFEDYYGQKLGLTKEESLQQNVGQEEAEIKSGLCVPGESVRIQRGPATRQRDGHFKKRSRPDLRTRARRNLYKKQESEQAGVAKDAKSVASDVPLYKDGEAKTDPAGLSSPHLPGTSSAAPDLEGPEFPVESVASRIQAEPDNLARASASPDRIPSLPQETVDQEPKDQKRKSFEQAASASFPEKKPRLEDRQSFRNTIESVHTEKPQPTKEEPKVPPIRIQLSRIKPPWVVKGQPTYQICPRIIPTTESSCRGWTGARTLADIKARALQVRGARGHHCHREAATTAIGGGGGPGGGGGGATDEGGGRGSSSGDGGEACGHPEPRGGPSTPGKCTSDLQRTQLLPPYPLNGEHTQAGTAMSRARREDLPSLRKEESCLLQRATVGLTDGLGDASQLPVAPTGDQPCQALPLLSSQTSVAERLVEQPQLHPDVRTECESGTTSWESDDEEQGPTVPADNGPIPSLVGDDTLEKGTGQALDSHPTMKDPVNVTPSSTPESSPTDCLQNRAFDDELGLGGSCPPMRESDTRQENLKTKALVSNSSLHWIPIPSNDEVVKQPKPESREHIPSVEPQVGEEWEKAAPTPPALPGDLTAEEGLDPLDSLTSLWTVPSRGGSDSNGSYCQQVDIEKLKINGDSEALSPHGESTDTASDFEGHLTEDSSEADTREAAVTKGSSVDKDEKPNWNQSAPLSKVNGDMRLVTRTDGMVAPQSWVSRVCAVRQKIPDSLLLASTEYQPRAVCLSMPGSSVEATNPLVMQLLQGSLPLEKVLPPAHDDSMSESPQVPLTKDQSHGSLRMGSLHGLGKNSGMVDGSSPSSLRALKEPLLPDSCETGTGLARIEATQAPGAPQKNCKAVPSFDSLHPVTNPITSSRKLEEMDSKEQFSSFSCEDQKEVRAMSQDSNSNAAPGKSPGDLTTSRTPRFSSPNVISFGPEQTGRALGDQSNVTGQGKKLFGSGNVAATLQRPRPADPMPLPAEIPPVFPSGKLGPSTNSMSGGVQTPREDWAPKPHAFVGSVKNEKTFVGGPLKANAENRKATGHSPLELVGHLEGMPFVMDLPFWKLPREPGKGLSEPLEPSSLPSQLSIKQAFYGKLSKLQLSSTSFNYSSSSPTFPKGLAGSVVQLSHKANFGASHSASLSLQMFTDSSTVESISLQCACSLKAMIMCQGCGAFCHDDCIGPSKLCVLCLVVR
UniProt P18850: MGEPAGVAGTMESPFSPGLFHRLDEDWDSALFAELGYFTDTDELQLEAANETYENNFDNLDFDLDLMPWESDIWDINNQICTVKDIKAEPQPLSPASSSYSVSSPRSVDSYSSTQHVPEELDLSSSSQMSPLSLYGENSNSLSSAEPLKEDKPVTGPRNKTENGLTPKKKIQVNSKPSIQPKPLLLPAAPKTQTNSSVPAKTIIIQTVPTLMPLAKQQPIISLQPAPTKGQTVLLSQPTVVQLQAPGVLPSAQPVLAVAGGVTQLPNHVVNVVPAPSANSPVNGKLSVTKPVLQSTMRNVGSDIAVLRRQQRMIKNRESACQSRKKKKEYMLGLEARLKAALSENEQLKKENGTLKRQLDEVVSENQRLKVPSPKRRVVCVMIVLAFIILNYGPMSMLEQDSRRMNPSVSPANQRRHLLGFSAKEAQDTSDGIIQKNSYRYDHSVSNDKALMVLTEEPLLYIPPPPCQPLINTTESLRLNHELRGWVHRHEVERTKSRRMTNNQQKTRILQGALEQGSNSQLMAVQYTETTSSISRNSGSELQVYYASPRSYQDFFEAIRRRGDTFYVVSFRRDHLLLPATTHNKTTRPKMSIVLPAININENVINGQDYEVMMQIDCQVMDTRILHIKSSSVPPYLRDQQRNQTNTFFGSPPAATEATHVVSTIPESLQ
UniProt Q96QE3: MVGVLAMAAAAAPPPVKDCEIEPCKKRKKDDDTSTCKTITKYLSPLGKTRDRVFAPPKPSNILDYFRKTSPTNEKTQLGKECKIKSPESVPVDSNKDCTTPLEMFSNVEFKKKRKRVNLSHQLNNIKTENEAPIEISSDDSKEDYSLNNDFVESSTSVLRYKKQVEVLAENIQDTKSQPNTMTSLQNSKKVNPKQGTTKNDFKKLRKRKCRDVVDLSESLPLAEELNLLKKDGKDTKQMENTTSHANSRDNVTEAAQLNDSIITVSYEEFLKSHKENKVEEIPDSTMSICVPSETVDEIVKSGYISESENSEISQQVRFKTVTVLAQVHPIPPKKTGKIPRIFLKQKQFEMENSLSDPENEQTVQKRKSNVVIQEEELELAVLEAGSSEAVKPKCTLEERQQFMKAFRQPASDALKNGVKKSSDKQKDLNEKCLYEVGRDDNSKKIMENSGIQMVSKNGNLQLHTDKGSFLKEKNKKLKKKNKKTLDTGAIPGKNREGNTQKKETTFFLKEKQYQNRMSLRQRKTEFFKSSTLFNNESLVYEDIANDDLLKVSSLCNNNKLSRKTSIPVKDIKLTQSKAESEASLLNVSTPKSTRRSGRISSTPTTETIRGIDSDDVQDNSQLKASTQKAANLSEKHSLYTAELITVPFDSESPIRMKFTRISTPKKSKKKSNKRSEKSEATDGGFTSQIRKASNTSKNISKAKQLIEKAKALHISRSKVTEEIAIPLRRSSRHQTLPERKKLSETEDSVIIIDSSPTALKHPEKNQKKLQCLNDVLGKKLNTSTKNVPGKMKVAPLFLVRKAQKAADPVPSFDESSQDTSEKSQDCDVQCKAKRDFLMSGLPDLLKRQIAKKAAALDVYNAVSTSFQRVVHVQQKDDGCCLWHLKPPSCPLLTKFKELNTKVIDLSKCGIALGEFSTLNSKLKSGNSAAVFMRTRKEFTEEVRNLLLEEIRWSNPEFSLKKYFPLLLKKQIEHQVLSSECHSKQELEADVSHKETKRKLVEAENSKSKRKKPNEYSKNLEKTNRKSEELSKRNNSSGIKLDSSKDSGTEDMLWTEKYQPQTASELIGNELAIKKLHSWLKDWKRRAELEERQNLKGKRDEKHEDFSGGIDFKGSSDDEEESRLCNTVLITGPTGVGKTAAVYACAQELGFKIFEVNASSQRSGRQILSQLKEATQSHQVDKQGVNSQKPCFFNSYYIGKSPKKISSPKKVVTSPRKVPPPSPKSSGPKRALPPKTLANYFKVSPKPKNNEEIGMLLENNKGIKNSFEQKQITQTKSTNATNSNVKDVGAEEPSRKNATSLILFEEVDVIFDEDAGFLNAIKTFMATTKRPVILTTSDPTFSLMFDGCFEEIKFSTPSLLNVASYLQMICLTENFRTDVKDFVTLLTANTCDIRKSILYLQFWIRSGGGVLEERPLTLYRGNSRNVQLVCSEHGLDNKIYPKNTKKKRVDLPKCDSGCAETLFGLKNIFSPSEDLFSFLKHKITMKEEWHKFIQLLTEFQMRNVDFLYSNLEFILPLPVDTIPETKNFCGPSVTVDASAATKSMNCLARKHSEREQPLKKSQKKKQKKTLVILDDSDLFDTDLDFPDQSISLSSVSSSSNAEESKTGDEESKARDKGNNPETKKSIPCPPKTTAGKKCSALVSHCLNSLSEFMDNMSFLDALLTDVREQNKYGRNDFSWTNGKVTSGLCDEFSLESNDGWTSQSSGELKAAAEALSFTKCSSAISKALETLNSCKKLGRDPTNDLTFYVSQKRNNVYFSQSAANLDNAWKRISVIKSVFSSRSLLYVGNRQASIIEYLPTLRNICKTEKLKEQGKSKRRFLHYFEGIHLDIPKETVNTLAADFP
UniProt Q14CW9: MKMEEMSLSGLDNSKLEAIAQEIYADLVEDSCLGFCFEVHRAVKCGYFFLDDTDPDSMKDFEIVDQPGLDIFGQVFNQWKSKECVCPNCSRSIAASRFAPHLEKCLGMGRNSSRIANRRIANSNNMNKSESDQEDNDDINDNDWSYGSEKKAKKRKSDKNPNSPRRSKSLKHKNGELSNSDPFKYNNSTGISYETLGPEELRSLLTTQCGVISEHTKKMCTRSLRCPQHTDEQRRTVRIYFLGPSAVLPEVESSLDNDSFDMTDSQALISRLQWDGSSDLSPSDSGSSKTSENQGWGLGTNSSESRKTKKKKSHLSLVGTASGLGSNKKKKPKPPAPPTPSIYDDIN
UniProt Q8NCR0: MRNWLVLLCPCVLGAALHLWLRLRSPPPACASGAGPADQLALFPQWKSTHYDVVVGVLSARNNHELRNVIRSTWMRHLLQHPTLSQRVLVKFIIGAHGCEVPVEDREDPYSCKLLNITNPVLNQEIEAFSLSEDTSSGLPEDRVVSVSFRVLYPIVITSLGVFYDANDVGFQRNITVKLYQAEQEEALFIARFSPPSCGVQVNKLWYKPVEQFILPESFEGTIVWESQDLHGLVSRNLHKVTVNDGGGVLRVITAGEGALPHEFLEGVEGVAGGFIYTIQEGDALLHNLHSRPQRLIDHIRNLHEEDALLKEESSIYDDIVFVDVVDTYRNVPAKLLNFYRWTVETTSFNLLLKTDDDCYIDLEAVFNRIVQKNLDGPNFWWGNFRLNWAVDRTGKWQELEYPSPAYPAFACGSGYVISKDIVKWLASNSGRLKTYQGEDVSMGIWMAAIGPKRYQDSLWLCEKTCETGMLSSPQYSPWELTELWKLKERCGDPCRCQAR
UniProt Q6P4H8: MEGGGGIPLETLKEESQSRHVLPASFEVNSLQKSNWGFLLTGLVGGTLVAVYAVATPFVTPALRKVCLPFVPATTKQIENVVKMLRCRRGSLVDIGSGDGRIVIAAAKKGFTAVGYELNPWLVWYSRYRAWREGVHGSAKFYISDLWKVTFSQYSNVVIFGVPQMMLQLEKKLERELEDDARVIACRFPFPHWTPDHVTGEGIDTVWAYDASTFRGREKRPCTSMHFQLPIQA

Some of the results follow.

Compound in the first assay: CNC(=O)C1=CC=CC=C1NC2=NC(=NC=C2Cl)NC3=C(C=C(C=C3)N4CCOCC4)OC
Description: log2 fold change, soluble protein after heating vs DMSO (PISA); higher = thermal stabilisation; K562 lysate, 10 uM; active = over 0.2 and 3.5 SD of the protein, either way, in both replicates (recomputed). In short, it runs like this:
(§1)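 Quantification was by TMTpro 16plex LC-MS/MS with equalised channel sums, applied to the supernatant after 21,000xg for 90 min. Samples were crude K562 extract at 1 mg/mL protein in PBS pH 7.4 with 1 mM MgCl2, treated with 10 μM compound for 30 min, heated for 3 min across 48°C-58°C, pooled and brought to 0.5% NP-40 at 4°C. Values are log-two fold changes in thermal stability relative to solvent controls, from duplicates.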
Take ASS1 (UniProt P00966): the log2 fold change was inactive: 0.401.

As to ASNSD1 (UniProt Q9NWL6), the log2 fold change was inactive: 0.13.

As to B3GALT6 (UniProt Q96L58), the log2 fold change was inactive: -0.025.

NA (UniProt B2RBV5): the log2 fold change was inactive: -0.31.

Regarding ATF1 (UniProt P18846), the log2 fold change is inactive: -0.028.

In the case of ASB9 (UniProt Q96DX5), the log2 fold change was inactive: 0.095.

For the target ASXL3 (UniProt Q9C0F0), the log2 fold change was inactive: -0.143.

For ASXL1 (UniProt Q8IXJ9), the log2 fold change is inactive: 0.047.

For the target ATP6V0A1 (UniProt Q93050), the log2 fold change is inactive: -0.087.

ATF6 (UniProt P18850): the log2 fold change was inactive: 0.133.

As to ASPRV1 (UniProt Q53RT3), the log2 fold change is inactive: -0.254.

Take ATAD5 (UniProt Q96QE3): the log2 fold change was inactive: 0.016.

On to ATG2A (UniProt Q2TAZ0), for which the log2 fold change is inactive: -0.066.

Turning to ATP1B1 (UniProt P05026), the log2 fold change was inactive: -0.044.

In the case of ATXN7L3 isoform 2 (UniProt Q14CW9), the log2 fold change is inactive: 0.08.

As for ATP2C1 isoform 3 (UniProt P98194), the log2 fold change was inactive: 0.007.

As to ASXL2 (UniProt Q76L83), the log2 fold change was inactive: 0.013.

Consider ATP5F1B (UniProt H0YI37), for which the log2 fold change was inactive: 0.002.

As to ATP5F1A (UniProt K7ENJ4), the log2 fold change is inactive: 0.135.

For the target ATP11C, A0A067XG54, the log2 fold change is inactive: -0.128.

Compound in the next assay: CNc1nc(-c2ccc3c(N)n[nH]c3c2)cc(N2C[C@@H](C(=O)NC3CCCCC3)CC[C@H]2C)n1
The description is as above. A digest of the protocol: as §1
With ASS1 (UniProt P00966), the log2 fold change was inactive: -0.104.

Consider ASB16 (UniProt Q96NS5), for which the log2 fold change was inactive: 0.196.

For B3GALT6 (UniProt Q96L58), the log2 fold change was inactive: 0.059.

Take ATF1 (UniProt P18846): the log2 fold change is inactive: -0.006.

Regarding ATG4D (UniProt Q86TL0), the log2 fold change is inactive: -0.008.

In the case of ATXN2 (UniProt F8WB06), the log2 fold change was inactive: -0.09.

Regarding B3GALNT2 (UniProt Q8NCR0), the log2 fold change is inactive: -0.087.

With ASXL1 (UniProt Q8IXJ9), the log2 fold change was inactive: 0.078.

On to ATP6V0A1 (UniProt Q93050), for which the log2 fold change was inactive: -0.039.

Take ATPSCKMT (UniProt Q6P4H8): the log2 fold change was inactive: -0.027.

For ATP1B4 (UniProt Q9UN42), the log2 fold change was inactive: -0.006.

Take ATP1B1 (UniProt P05026): the log2 fold change was inactive: -0.036.

ATXN7L3 isoform 2 (UniProt Q14CW9): the log2 fold change was inactive: 0.011.

Consider ASXL2 (UniProt Q76L83), for which the log2 fold change was inactive: 0.051.

As for ATP5F1B (UniProt H0YI37), the log2 fold change is inactive: 1.34.

On to ATP11C, A0A067XG54, for which the log2 fold change is inactive: -0.105.

Compound in another assay: COC(=O)N[C@@H](C)CNc1nccc(-c2cn(C(C)C)nc2-c2cc(Cl)cc(NS(C)(=O)=O)c2F)n1 [encorafenib]
The assay is described as above. In short, it runs like this:
as §1
With ASS1 (UniProt P00966), the log2 fold change is inactive: 0.024.

For the target ASNSD1 (UniProt Q9NWL6), the log2 fold change was inactive: 0.198.

On to NA (UniProt B2RBV5), for which the log2 fold change is inactive: 0.05.

For the target ATF1 (UniProt P18846), the log2 fold change is inactive: 0.161.

On to ATG4D (UniProt Q86TL0), for which the log2 fold change was inactive: -0.031.

With ASXL1 (UniProt Q8IXJ9), the log2 fold change was inactive: -0.005.

As to ATF6 (UniProt P18850), the log2 fold change is inactive: -0.103.

As for ATPSCKMT (UniProt Q6P4H8), the log2 fold change is inactive: -0.176.

On to ATAD5 (UniProt Q96QE3), for which the log2 fold change was inactive: 0.02.

As to B3GNTL1 (UniProt Q67FW5), the log2 fold change was inactive: -0.081.

Consider ATP5F1B (UniProt F8W079), for which the log2 fold change is inactive: -0.129.

Compound in another assay: COC(=O)[C@H](CCSC)NC(=O)C1=C(C=C(C=C1)NC[C@H](CS)N)C2=CC=CC=C2
The assay is described as above. A digest of the protocol: as §1
With ASS1 (UniProt P00966), the log2 fold change was inactive: 0.086.

For ASNSD1 (UniProt Q9NWL6), the log2 fold change is inactive: 0.214.

As to NA (UniProt B2RBV5), the log2 fold change is inactive: -0.049.

As for ATF1 (UniProt P18846), the log2 fold change was inactive: -0.037.

For ATG4D (UniProt Q86TL0), the log2 fold change is inactive: -0.155.

Consider ASXL1 (UniProt Q8IXJ9), for which the log2 fold change is inactive: -0.041.

ATF6 (UniProt P18850): the log2 fold change was inactive: -0.148.

Consider ATPSCKMT (UniProt Q6P4H8), for which the log2 fold change was inactive: 0.17.

Turning to ATAD5 (UniProt Q96QE3), the log2 fold change is inactive: -0.175.

Regarding B3GNTL1 (UniProt Q67FW5), the log2 fold change is inactive: 0.078.

Take ATP5F1B (UniProt F8W079): the log2 fold change was inactive: 0.033.

Compound in a further assay: COc1cc(Nc2ncc3c(n2)-c2ccc(Cl)cc2C(c2c(F)cccc2OC)=NC3)ccc1C(=O)O [alisertib]
The assay is described as above. A digest of the protocol: as §1
For the target ASS1 (UniProt P00966), the log2 fold change was inactive: -0.014.

Consider ASNSD1 (UniProt Q9NWL6), for which the log2 fold change was inactive: -0.112.

In the case of NA (UniProt B2RBV5), the log2 fold change is inactive: 0.046.

Take ATF1 (UniProt P18846): the log2 fold change is inactive: -0.034.

B3GALNT2 (UniProt Q8NCR0): the log2 fold change was inactive: -0.046.

In the case of ASXL1 (UniProt Q8IXJ9), the log2 fold change was inactive: 0.092.

Turning to ATAD5 (UniProt Q96QE3), the log2 fold change is inactive: 0.02.

With ATG2A (UniProt Q2TAZ0), the log2 fold change was inactive: -0.108.

Take ATP1B1 (UniProt P05026): the log2 fold change is inactive: 0.033.

Regarding ATXN7L3 isoform 2 (UniProt Q14CW9), the log2 fold change was inactive: 0.201.

ATP5F1B (UniProt H0YI37): the log2 fold change is inactive: -0.212.

For the target ATP5F1A (UniProt K7ENJ4), the log2 fold change was inactive: 0.01.

With ATP5F1B (UniProt F8W079), the log2 fold change is inactive: 0.1.
